Reference: patent US12454703B2, “Controllable transcription” (Cambridge Enterprise Limited (GB/GB), priority 2016, dated 2025)
For at least one compound, name, drawing or mass did not settle the structure.

Legend:
induced myocytes = test: Contraction of induced skeletal myocytes; assay type: cell-based, human; conditions: nanomolar concentrations
EGFP expressing hESCs = test: Inducible EGFP overexpression in dual GSH-targeted hESCs, flow cytometry; assay type: cell-based, human

| SMILES | muscle fiber contraction (induced myocytes) | dose dependence of EGFP expression (EGFP expressing hESCs) | time to peak of EGFP levels after induction (EGFP expressing hESCs; doxycycline induction) |
| --- | --- | --- | --- |
| CC(=O)OCC[N+](C)(C)C [acetylcholine] | complete muscle fiber contraction |  |  |
| C[C@H]1c2cccc(O)c2C(=O)C2=C(O)[C@]3(O)C(=O)C(C(N)=O)=C(O)[C@@H](N(C)C)[C@@H]3[C@@H](O)[C@@H]21 [doxycycline] |  | could be titrated by adjusting the dose | approximately four |
